Reference: publication PMC10993188
The exact form of at least one protein or probe is not confirmed. For some assays here: No signal at the amounts used counts as a negative. For some assays here: At least one verdict rests on a figure or table, not on a statement of the authors.

Protein sequences, listed by entry. Tags and fused reporters are not part of them.
UniProt Q06609, whole entry K133R/S181P: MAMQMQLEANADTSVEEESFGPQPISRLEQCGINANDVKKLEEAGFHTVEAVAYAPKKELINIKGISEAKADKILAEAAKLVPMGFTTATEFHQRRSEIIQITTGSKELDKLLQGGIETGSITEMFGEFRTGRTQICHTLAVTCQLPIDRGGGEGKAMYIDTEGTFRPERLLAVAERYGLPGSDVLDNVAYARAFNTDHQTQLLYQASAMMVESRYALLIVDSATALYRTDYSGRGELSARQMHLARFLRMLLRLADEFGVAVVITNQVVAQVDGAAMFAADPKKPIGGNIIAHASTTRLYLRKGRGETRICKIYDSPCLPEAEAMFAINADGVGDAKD
UniProt Q06609, whole entry S181P: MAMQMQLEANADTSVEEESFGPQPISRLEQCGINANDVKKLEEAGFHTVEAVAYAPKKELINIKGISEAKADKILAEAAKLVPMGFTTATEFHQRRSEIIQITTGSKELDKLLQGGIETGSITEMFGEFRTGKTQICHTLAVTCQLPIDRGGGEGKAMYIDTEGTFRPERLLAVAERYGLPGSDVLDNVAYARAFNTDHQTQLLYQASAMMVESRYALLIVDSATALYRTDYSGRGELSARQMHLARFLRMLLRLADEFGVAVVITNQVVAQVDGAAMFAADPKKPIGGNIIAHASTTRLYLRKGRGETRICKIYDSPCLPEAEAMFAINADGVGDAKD
UniProt Q06609, whole entry K133R: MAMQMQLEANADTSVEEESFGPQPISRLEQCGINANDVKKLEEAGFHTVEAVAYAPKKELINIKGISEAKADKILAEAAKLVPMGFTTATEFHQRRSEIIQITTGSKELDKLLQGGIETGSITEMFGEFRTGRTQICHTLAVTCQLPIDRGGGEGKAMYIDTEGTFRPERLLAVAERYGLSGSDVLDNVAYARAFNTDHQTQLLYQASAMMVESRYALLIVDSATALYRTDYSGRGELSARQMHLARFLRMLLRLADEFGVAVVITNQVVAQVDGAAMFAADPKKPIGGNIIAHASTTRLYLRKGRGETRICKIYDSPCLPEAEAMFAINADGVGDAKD

Assays:
[1] = target: RAD51 K133R/S181P (KR/SP) (Homo sapiens) (UniProt Q06609); experiment: EMSA; settings: 1 mM ATP, 1 mM Mg2+, no Ex27, complex disassembled by GST-BRC3; EMSA: 10 mM Tris-HCl pH 7.5, 10 mM KCl, 1 mM MgCl2, 1 mM ATP, 1 mM DTT, 25 C, 25 nM DNA, 1.1 uM RAD51; recombinant protein; label: 5' FAM (FITC); single-stranded DNA
[2] = target: RAD51 S181P (SP) (Homo sapiens) (UniProt Q06609); experiment: EMSA; settings: 1 mM ATP, 1 mM Mg2+, no Ex27, complex disassembled by GST-BRC3; EMSA: 10 mM Tris-HCl pH 7.5, 10 mM KCl, 1 mM MgCl2, 1 mM ATP, 1 mM DTT, 25 C, 25 nM DNA, 1.1 uM RAD51; recombinant protein; label: 5' FAM (FITC); single-stranded DNA
[3] = target: RAD51 K133R (KR) (Homo sapiens) (UniProt Q06609); experiment: EMSA; settings: 1 mM ATP, 1 mM Mg2+, no Ex27, complex disassembled by GST-BRC3; EMSA: 10 mM Tris-HCl pH 7.5, 10 mM KCl, 1 mM MgCl2, 1 mM ATP, 1 mM DTT, 25 C, 25 nM DNA, 1.1 uM RAD51; recombinant protein; label: 5' FAM (FITC); single-stranded DNA
[4] = tested on: RAD51 S181P (SP) + BRCA2 Ex27 peptide (TR2); experiment: EMSA super-shift; settings: 5.7 uM Ex27, 1 mM ATP, 1 mM Mg2+, no ternary complex with Ex27 (SP itself binds DNA), not protected from GST-BRC3; EMSA: 10 mM Tris-HCl pH 7.5, 10 mM KCl, 1 mM MgCl2, 1 mM ATP, 1 mM DTT, 25 C, 25 nM DNA, 1.1 uM RAD51; recombinant protein; label: 5' FAM (FITC); single-stranded DNA
[5] = tested on: RAD51 K133R/S181P (KR/SP) + BRCA2 Ex27 peptide (TR2); experiment: EMSA super-shift; settings: 5.7 uM Ex27, 1 mM ATP, 1 mM Mg2+, no ternary complex with Ex27 (KR/SP itself binds DNA), not protected from GST-BRC3; EMSA: 10 mM Tris-HCl pH 7.5, 10 mM KCl, 1 mM MgCl2, 1 mM ATP, 1 mM DTT, 25 C, 25 nM DNA, 1.1 uM RAD51; recombinant protein; label: 5' FAM (FITC); single-stranded DNA
[6] = tested on: RAD51 WT + BRCA2 Ex27 peptide (TR2); experiment: BLI; settings: 10 uM Ex27, 2 mM ATP, 5 mM Mg2+, Ex27 suppresses GST-BRC4-induced dissociation; BLI: 50 mM Tris-HCl pH 7.5, 50 mM KCl, 5 mM MgCl2, 2 mM ATP, 0.05% Tween 20, 15 nM DNA; recombinant protein; label: 3' biotin; single-stranded DNA
[7] = tested on: RAD51 S181P (SP) + BRCA2 Ex27 peptide (TR2); experiment: BLI; settings: 10 uM Ex27, 2 mM ATP, 5 mM Mg2+, no Ex27 association with SP filament (SP itself binds DNA); BLI: 50 mM Tris-HCl pH 7.5, 50 mM KCl, 5 mM MgCl2, 2 mM ATP, 0.05% Tween 20, 15 nM DNA; recombinant protein; label: 3' biotin; single-stranded DNA
[8] = tested on: RAD51 S181P (SP) + BRCA2 Ex27 peptide (TR2); experiment: stopped-flow PIFE; settings: Ex27 has no effect on SP assembly (no ternary complex, SP itself binds DNA); recombinant protein; label: 5' Cy3; single-stranded DNA

**Q.** Does “AAATCAATCTAAAGTATATATGAGTAAACTTGGTCTGACAGTTACCAATGCTTAATCAGTGAGGCACCTATCTCAGCGATCTGTCTATTT [5'FITC-90mer ssDNA]” bind [1]?
**A.** binds

**Q.** Does “AAATCAATCTAAAGTATATATGAGTAAACTTGGTCTGACAGTTACCAATGCTTAATCAGTGAGGCACCTATCTCAGCGATCTGTCTATTT [5'FITC-90mer ssDNA]” bind [2]?
**A.** binds

**Q.** Does “AAATCAATCTAAAGTATATATGAGTAAACTTGGTCTGACAGTTACCAATGCTTAATCAGTGAGGCACCTATCTCAGCGATCTGTCTATTT [5'FITC-90mer ssDNA]” bind [3]?
**A.** binds

**Q.** Does “AAATCAATCTAAAGTATATATGAGTAAACTTGGTCTGACAGTTACCAATGCTTAATCAGTGAGGCACCTATCTCAGCGATCTGTCTATTT [5'FITC-90mer ssDNA]” bind [4]?
**A.** no binding

**Q.** Does “AAATCAATCTAAAGTATATATGAGTAAACTTGGTCTGACAGTTACCAATGCTTAATCAGTGAGGCACCTATCTCAGCGATCTGTCTATTT [5'FITC-90mer ssDNA]” bind [5]?
**A.** no binding

**Q.** Which results are given for “TTTTTTTTTTTTTTTTTTTTTTTTTTTTTTTTTTTTTTTTTTT [oligo-dT 43-mer]”?
**A.** binding result [6]: binds; binding result [7]: no binding

**Q.** Does “TTTTTTTTTTTTTTTTTTTTTTTTTTTTTTTTTTTTTTTTTTTTTTTTTTTTTTTTTTTTTTTTTTTTTTTTTTTTTTT [Cy3-(dT)79]” bind [8]?
**A.** no binding
